For some of these results: Protein sequences can lack the tags named with them.
Legend:
Test in all cases: EMSA-SELEX-seq
[1] = tested on: POU2 (OCT2 POU domain) + BOB1 (OBF1, OCA-B); conditions: with BOB1 (ternary complex band); 20 mM Tris-HCl pH 7.6, 140 mM NaCl, 10% glycerol, 0.5 mM EDTA, 0.05% Triton X-100, 0.1 mg/mL BSA, 0.1 mg/mL poly(dI-dC), 5 mM DTT, room temperature, 20 min; high values mean tight binding; recombinant protein; only the motif is given; counted as no binding
[2] = biological target: T1, POU2 (OCT2 POU domain) (human) (UniProt P09086); conditions: no BOB1; 20 mM Tris-HCl pH 7.6, 140 mM NaCl, 10% glycerol, 0.5 mM EDTA, 0.05% Triton X-100, 0.1 mg/mL BSA, 0.1 mg/mL poly(dI-dC), 5 mM DTT, room temperature, 20 min; high values mean tight binding; recombinant protein; only the motif is given; counted as no binding
T1 sequence (looked up, limits assumed): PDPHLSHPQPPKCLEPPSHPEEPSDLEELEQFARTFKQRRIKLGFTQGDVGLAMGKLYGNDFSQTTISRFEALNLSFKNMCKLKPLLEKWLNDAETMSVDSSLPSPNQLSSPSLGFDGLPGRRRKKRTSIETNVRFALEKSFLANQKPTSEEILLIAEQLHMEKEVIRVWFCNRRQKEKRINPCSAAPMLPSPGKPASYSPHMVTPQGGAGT

[3] = tested on: POU1 (OCT1 POU domain) + BOB1 (OBF1, OCA-B); conditions: with BOB1 (ternary complex band); 20 mM Tris-HCl pH 7.6, 140 mM NaCl, 10% glycerol, 0.5 mM EDTA, 0.05% Triton X-100, 0.1 mg/mL BSA, 0.1 mg/mL poly(dI-dC), 5 mM DTT, room temperature, 20 min; high values mean tight binding; recombinant protein; only the motif is given; counted as no binding
[4] = biological target: T2, POU1 (OCT1 POU domain) (human) (UniProt P14859); conditions: no BOB1; 20 mM Tris-HCl pH 7.6, 140 mM NaCl, 10% glycerol, 0.5 mM EDTA, 0.05% Triton X-100, 0.1 mg/mL BSA, 0.1 mg/mL poly(dI-dC), 5 mM DTT, room temperature, 20 min; high values mean tight binding; recombinant protein; only the motif is given; counted as no binding
T2 sequence (looked up, limits assumed): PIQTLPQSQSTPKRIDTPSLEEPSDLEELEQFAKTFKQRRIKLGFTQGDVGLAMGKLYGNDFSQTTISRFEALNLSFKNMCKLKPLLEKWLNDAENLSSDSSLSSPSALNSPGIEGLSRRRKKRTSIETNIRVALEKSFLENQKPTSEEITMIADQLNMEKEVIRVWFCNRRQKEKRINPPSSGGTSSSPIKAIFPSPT

Sequence	binding signal (% of ANNNNAAN 8-mers) [1]	binding signal (% of ANNNNAAN 8-mers) [2]	binding signal (% of ANNNNAAN 8-mers) [3]	binding signal (% of ANNNNAAN 8-mers) [4]
AACCCAAG (double strand)	0.00826			
AACCTAAC (double strand)		0.00921	0.00976	
AACGCAAC (double strand)			0.00858	
ACACCAAC (double strand)				0.00801
ACAGCAAC (double strand)	0.00991			
ACCACAAC (double strand)	0.00908		0.00937	
ACCACAAG (double strand)	0.00826			
ACCCAAAC (double strand)		0.00748		0.00725
ACCCCAAC (double strand)	0.00413	0.00575	0.00546	0.00496
ACCCCAAG (double strand)	0.00991			0.00839
ACCCGAAC (double strand)			0.00898	
ACCCTAAC (double strand)			0.00819	
ACCGAAAC (double strand)	0.00826			
ACCGCAAC (double strand)		0.00921	0.00819	
ACCGCAAG (double strand)	0.00991			
ACCGGAAG (double strand)			0.00898	0.00877
ACCTCAAC (double strand)		0.00978		0.00725
ACCTCAAG (double strand)	0.00826			
ACCTGAAC (double strand)		0.00863		
ACGCCAAC (double strand)	0.00908			0.00915
ACGCCAAG (double strand)			0.00937	
ACTCCAAC (double strand)		0.00863		
ACTGCAAC (double strand)	0.00826			
AGACCAAC (double strand)	0.00743	0.00921	0.00937	0.00992
AGCACAAC (double strand)			0.00898	
AGCCCAAC (double strand)		0.00921		0.00686
AGCCCAAG (double strand)		0.00978		
AGCTCAAC (double strand)				0.00877

Reference: PMC10812921
